Results as given in PMC6344529.
These are yes or no findings as the source states them, for the method shown. Binding seen in cells or lysates may run through a third protein. Some results given as binding are weak or reduced against the parent protein; the word gives no strength.

Protein sequences, listed by entry. Tags and fused reporters are not part of them.
UniProt Q3UFQ8: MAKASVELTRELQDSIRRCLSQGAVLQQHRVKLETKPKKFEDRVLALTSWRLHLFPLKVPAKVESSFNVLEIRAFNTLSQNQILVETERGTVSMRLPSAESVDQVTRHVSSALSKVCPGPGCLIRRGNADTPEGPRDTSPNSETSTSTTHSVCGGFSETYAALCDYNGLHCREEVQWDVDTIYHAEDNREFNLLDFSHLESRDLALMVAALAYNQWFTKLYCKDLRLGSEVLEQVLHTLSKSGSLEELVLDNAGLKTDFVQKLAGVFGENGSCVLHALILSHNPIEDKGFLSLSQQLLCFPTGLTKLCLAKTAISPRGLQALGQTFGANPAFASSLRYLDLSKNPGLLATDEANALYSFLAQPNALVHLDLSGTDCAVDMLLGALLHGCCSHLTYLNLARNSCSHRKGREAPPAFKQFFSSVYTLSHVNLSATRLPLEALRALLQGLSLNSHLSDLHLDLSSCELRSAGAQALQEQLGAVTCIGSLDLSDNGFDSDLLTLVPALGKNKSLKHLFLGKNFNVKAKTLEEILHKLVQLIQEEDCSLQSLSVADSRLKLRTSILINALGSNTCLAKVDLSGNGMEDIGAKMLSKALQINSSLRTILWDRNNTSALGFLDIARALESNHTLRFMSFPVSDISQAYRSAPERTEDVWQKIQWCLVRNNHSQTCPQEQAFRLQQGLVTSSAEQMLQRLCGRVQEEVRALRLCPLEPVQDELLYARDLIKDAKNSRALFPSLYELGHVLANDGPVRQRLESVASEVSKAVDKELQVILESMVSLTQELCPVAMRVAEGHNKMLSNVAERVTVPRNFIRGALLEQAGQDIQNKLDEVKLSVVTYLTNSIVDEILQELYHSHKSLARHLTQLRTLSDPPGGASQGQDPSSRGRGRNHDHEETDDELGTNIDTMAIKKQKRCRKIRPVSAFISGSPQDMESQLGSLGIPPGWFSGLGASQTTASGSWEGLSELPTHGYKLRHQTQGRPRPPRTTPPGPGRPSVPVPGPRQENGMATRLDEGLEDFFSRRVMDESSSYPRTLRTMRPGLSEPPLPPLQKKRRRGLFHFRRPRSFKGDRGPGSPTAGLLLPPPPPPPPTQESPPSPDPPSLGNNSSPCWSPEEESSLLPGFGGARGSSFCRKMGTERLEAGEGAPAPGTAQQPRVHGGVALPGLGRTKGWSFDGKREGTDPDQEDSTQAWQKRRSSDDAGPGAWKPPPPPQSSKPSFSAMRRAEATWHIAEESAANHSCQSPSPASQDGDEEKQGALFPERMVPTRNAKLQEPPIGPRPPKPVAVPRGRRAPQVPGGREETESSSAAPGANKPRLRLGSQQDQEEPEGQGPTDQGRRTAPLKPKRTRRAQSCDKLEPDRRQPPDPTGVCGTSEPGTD
UniProt Q812A2: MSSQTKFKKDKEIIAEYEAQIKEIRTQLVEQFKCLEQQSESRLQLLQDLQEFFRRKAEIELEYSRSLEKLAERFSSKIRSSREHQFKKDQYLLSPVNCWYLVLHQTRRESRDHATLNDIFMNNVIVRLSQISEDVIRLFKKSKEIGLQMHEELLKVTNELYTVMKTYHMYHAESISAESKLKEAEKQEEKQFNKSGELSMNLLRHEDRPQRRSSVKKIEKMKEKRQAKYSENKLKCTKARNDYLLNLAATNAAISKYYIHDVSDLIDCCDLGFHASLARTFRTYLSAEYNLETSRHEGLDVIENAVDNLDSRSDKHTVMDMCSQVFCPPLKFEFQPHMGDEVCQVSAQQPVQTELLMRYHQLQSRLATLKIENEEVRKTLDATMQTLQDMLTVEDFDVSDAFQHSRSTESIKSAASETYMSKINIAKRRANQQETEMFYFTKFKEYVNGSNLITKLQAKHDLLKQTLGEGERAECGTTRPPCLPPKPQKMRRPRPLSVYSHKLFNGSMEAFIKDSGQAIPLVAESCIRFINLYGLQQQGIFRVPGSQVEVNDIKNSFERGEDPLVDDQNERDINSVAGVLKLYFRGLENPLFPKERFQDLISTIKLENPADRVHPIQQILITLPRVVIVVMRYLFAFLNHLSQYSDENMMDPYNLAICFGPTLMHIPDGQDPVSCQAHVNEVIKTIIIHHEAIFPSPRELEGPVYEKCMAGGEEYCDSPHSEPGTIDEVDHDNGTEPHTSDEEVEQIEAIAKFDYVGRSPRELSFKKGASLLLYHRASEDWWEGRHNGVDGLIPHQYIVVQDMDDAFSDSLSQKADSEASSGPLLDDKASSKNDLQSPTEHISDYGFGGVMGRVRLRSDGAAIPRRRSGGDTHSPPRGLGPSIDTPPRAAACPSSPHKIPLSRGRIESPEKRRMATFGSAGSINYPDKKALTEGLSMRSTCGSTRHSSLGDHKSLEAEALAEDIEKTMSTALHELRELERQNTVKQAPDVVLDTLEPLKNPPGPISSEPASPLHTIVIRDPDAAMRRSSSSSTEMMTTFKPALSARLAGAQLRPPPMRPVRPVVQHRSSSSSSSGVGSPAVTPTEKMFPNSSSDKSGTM

Assays:
[1] = target: HA epitope tagged CARMIL3 (UniProt Q3UFQ8); test: co-IP; HEK293T cells co-transfected with HA-CARMIL3 constructs, Wrp constructs and CAPZB2-TwinStrepII; lysis in 25 mM HEPES, 150 mM NaCl, 0.5% Triton X-100, 1 mM EDTA; anti-HA beads overnight; blots with anti-HA, anti-V5, anti-capping protein beta
[2] = target: endogenous CARMIL3-myc (mouse (endogenous in mouse brain)) (UniProt Q3UFQ8); test: co-IP; P7 whole brain lysates of Cas9 KI mice with HITI myc-tagged endogenous CARMIL3, against uninfected pups; Myc beads (myc nano-trap resin); blots for Wrp, capping protein beta and ArpC3

binding [1]	binding [2]	Substance
binds	–	V5-epitope tagged Wrp (full-length) (from UniProt Q812A2 1-1099)
–	binds	endogenous Wrp (from UniProt Q812A2 1-1099)
